# Screening data, single-dose tests

The values are deposited in ChEMBL (CHEMBL3988442, “University of Dundee, Small-Polar-MMV Screening Library” (2021)).

The filed quantity is “Percent Effect” (%). The record does not define 0% and 100%; most values in the screen are far below 50% and negative numbers occur (in some assays of this library far below -100). This is an unselected part of the compounds tested.

Mtb cholesterol medium: 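Whole-cell growth test on Mycobacterium tuberculosis, read after 4 days in a medium based on cholesterol and the lipid DPPC; the read-out is not stated. Compounds at 500 µM. Direction is inferred from retests: higher values go with more growth inhibition. Of about 18,000 compounds tested this way, about 900 (5%) reached 50% or more in at least one test.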
Mtb glucose medium: 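Growth of Mycobacterium tuberculosis over 3 days (7H9 medium with glucose and tyloxapol); the read-out is not stated. Concentration: 500 µM. Direction is inferred from retests: higher values go with more growth inhibition. Of about 18,000 compounds tested this way, about 1,400 (7.9%) reached 50% or more in at least one test.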

| # | compound | Mtb cholesterol medium | Mtb glucose medium |
|---|---|---|---|
| 1 | `COc1cc(C(=O)CCN(C)C)cc(OC)c1OC` | 111 | 104.9 |
| 2 | `NC(=O)COC(=O)c1cc(Cl)cc(C(F)(F)F)c1` | 2.077 | 7.08 |
| 3 | `Cc1cc(CC#N)nn1C` | -3.371 | 2.741 |
| 4 | `COc1cccc(C(F)(F)CN)n1` | -15.28 | -3.782 |
| 5 | `O=S1(=O)CCN(c2ncc(C(F)(F)F)cc2Cl)CC1` | -2.533 | 0.9178 |
| 6 | `NC(=O)c1ccc(=O)n(Cc2ccc(Br)s2)n1` | 18.08 | 42.88 |
| 7 | `CCCc1nc(C)cc(NCCO)n1` | -2.869 | -5.297 |
| 8 | `O=S(=O)(CCO)c1ccc(Br)cc1` | 17.23 | 23.88 |
| 9 | `CCc1ccc(NC(=O)N[C@@H]2CNCC[C@H]2O)cc1` | 16.85 | 35.94 |
| 10 | `Cc1cnc2c(S(=O)(=O)N(C)C)cccc2c1` | 6.842 | 32.5 |
| 11 | `O=C(c1c[nH]nc1-c1ccccc1)N1CCOCC1` | 4.007 | 5.773 |
| 12 | `CN1CCC(NC(=O)CCCOc2ccccc2)CC1` | -13.33 | -10.4 |
| 13 | `CC(C)N1CC(NC(=O)c2ccc3ccccc3n2)C1` | -2.299 | 17.18 |
| 14 | `CN(C)CCNCc1ccc2c(c1)n(C)c(=O)n2C` | 4.639 | 0.07323 |
| 15 | `COC(=O)[C@H](C)NC(=O)Cc1ccccc1C` | 1.614 | 47.59 |
| 16 | `CC(=O)N1CCC(NC(=O)Cc2ccccc2C)CC1` | 5.688 | 9.777 |
| 17 | `O=C(CN1CCCN(CC2CCC2)CC1)N1CCCC1` | -7.204 | -3.044 |
| 18 | `CC(C)n1c(CO)nc2ccccc21` | 4.59 | 10.73 |
| 19 | `CC(C)CC1C(=O)NCCN1CC(=O)NC1CC1` (stereo not drawn) | 8.33 | 12.13 |
| 20 | `CCCC(C#N)NC(=O)c1cnn(C)c1` (stereo not drawn) | 2.221 | 8.452 |
| 21 | `c1ccn2c(CC3CCCNC3)nnc2c1` (stereo not drawn) | -15.43 | -5.655 |
| 22 | `Cc1ccc(F)cc1NC(=O)NCC(=O)N1CCCC1` | 0.429 | -5.993 |
| 23 | `CCN(C1CC1)S(=O)(=O)c1ccc2c(c1)OCCO2` | 37.59 | 62.74 |
| 24 | `Cc1nn(C)c(Cl)c1C(=O)NCc1ccccn1` | 7.654 | 22.26 |
| 25 | `Cc1ccc(NC(=O)CC(C)C)cc1` | 6.657 | -6.701 |
| 26 | `Cc1cc(NC(=O)C2CCCO2)n(C)n1` (stereo not drawn) | 3.046 | 0.01578 |
| 27 | `CN(C)c1cc(CNC(=O)C2CCC(=O)N2)ccn1` (stereo not drawn) | 4.466 | 19.58 |
| 28 | `CCOC(=O)CSc1ncc(C#N)c(N)n1` | -77.41 | -83.27 |
| 29 | `c1cc(N2CCN(CCn3cncn3)CC2)ncn1` | -18.19 | -15.97 |
| 30 | `c1ccc(-c2noc(C3CCCO3)n2)nc1` (stereo not drawn) | 9.225 | 11.22 |
| 31 | `CCN(CC)CC(=O)NCc1c(C)cc(C)[nH]c1=O` | -14.76 | -3.459 |
| 32 | `CCC1CN(C)c2ccccc2CN1CCS(C)(=O)=O` (stereo not drawn) | 2.249 | -5.255 |
| 33 | `Cc1[nH]ncc1CCCNC(=O)N1CCSCC1` | -9.174 | 12.55 |
| 34 | `CCn1cc(CN2CC(C)OCC2(C)C)cn1` (stereo not drawn) | -0.7489 | -7.988 |
| 35 | `c1coc(-c2nc(N3CCOCC3)no2)c1` | -14.78 | -8.733 |
| 36 | `COCC(=O)Nc1cc(OC)c(Br)cn1` | -3.57 | -1.511 |
| 37 | `OCCN1CCN(c2nc3ccccc3o2)CC1` | 18.68 | 19.37 |
| 38 | `CCC(C)NC(=O)c1nc2ccccc2n(C)c1=O` (stereo not drawn) | -10.93 | -5.948 |
| 39 | `CC(C)(C)C(=O)Nc1cncc(Br)c1O` | -8.755 | -15.99 |
| 40 | `O=C(NC1CC1)c1ccccc1C(F)(F)F` | -19.56 | -2.475 |
| 41 | `CN(C)C(=O)CN1CCOC(CCc2ccccc2)C1` (stereo not drawn) | 33.73 | 50.94 |
| 42 | `CN(C)C(=O)C1CCNCC1` | 8.892 | 6.183 |
| 43 | `COC(=O)C1CCN(C(=O)C2CCCO2)CC1` (stereo not drawn) | -26.53 | -7.301 |
| 44 | `O=C(CN1CCOCC1)c1cccc(Cl)c1` | 5.619 | 13.97 |
| 45 | `CS(=O)(=O)N(CC(N)=O)c1cccc(Cl)c1Cl` | 8.433 | 13.21 |

Repeated from the top, 4 entries:

- COc1cc(C(=O)CCN(C)C)cc(OC)c1OC : Mtb cholesterol medium: 111%; Mtb glucose medium: 104.9%
- NC(=O)COC(=O)c1cc(Cl)cc(C(F)(F)F)c1 : Mtb cholesterol medium: 2.077%; Mtb glucose medium: 7.08%
- Cc1cc(CC#N)nn1C : Mtb cholesterol medium: -3.371%; Mtb glucose medium: 2.741%
- COc1cccc(C(F)(F)CN)n1 : Mtb cholesterol medium: -15.28%; Mtb glucose medium: -3.782%